Reference: paper PMC2633459 (Molecular Vision, 2009)
These are yes or no findings as the source states them, for the method shown.

Molecular target: T1, wild type human βB1-crystallin (human, UniProt P53674 1-252)
T1 construct: human βB1-crystallin, wild type, recombinant; Mixture of monomers and dimers at the concentrations of the 1:1 experiments; dimer at the higher concentration of the 5:1 experiment; source: E. coli, purified (successive ion-exchange chromatography)
T1 sequence (looked up): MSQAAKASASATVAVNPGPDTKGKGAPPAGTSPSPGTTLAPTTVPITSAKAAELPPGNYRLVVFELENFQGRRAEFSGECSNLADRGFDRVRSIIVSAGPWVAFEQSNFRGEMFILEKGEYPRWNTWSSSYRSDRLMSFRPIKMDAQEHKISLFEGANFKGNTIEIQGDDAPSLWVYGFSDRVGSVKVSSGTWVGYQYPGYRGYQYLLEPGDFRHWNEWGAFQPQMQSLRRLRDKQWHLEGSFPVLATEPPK
Assay: SEC-MALS; 1:1 molar ratio, mixture subjected to SEC-MALS immediately upon mixing (0 min); same buffer; both purified

B1: doubly deamidated mutant βA3 Q85E/Q180E (natural protein, human, UniProt P05813 1-215, looked up)
chain: METQAEQQELETLPTTKMAQTNPTPGSLGPWKITIYDQENFQGKRMEFTSSCPNVSERSFDNVRSLKVESGAWIGYEHTSFCGQEFILERGEYPRWDAWSGSNAYHIERLMSFRPICSANHKESKMTIFEKENFIGRQWEISDDYPSLQAMGWFNNEVGSMKIQSGAWVCYQYPGYRGYEYILECDHHGGDYKHWREWGSHAQTSQIQSIRRIQQ
notes: human βA3-crystallin with Q85E and Q180E (mimic of deamidation), recombinant; Homo-dimer by SEC-MALS at 37 °C; precipitates at 55 °C when alone; also called DM βA3; βA3 DM; source: E. coli, purified (successive ion-exchange chromatography)
- binding: no binding (condition: immediately upon mixing (0 min))
